Measurements from US20100197710A1, “Methods Of Activating IRS-1 And AKT” (MELIOR PHARMACEUTICALS I, INC., priority 2007, published 2010).

Assay: Effect on blood insulin, leptin and corticosterone level
Assay type: in vivo
Settings: mice, one hour after administration, FIG. 1

Cc1cccc(Oc2cnc(=O)[nH]c2)c1 [Compound 102]
did not effect: blood level of corticosterone | blood level of insulin | blood level of leptin
